This experiment can be described thus: qHTS Assay for Modulators of Lamin A Splicing. The following applies: HeLa LMNA splicing GFP/RFP minigene ratio, 48 h. The essentials: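 Read-out is the ratio of GFP to DsRed2 object intensity, acquired by 488 nm laser-scanning cytometry on HeLa lamin A-EGFP minigene reporter cells. Compound incubation 48 hrs at 37 °C in Opti-MEM with 2% FBS; DMSO 0.5% final.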

Setting [1] is: measured here: GFP splicing reporter channel.
The mark [2] stands for this setting: measured here: RFP viability control channel.

Structures are written as SMILES. Values joined by “and” are separate entries in the source; they are usually repeats but may differ in a detail not shown here. Identical values can stand only once. The list shows a part of the results. Shown are side measurements of this screen, not its main read-out; they come without a call. Compounds called inactive in the main read-out are mostly missing here. The note in brackets gives the kind of curve behind each potency; many fits are weak.

The term AC50 denotes the midpoint of the concentration-response curve, whichever way the signal moves.

Consider `O=C(CCn1c(=O)oc2ccccc21)N1CCN(C(c2ccccc2)c2ccccc2)CC1`, for which the AC50 under setting [1] was 20 µM [rising, single point] and the concentration at half-maximal activity (AC50) under setting [2] was 35.5 µM [rising, single point].

Take `CCC(C)C(=O)c1c(O)c(C)c2oc3c(C)c(O)c(C(=O)C(C)CC)c(O)c3c2c1O` (configuration not stated): the half-maximal activity concentration (AC50) is 7.08 µM [falling, partial curve, poor fit] under setting [1] and 1.41 µM [rising, full curve, poor fit] under setting [2].

In the case of `O=C(c1ccc2c3c(cccc13)CC2)C1CCCN(Cc2ncc[nH]2)C1` (configuration not stated), the AC50 under setting [2] was 0.0224 µM [falling, full curve].

As for `C=CCn1c(O)c(C(CC)=NCc2cc(OC)cc(OC)c2)c(=O)[nH]c1=O`, under setting [2], the AC50 is 14.1 µM [rising, single point].

As for `CS(=O)(=O)c1ccc([C@H](O)[C@H](CF)NC(=O)C(Cl)Cl)cc1`, the AC50 under setting [2] is 14.1 µM [rising, single point].

Take `CCCC1(CCC)C(=O)NC(=NCc2ccccc2)NC1=O`: the AC50 under setting [1] was 14.1 µM [falling, single point] and the AC50 under setting [2] is 15.8 µM [falling, single point].

With `Cc1cc(C(=O)CS(=O)c2ccc(F)cc2)cc(C)c1OC(=O)N(C)C` (configuration not stated), the AC50 under setting [2] was 14.1 µM [falling, partial curve, poor fit].

`C[N+]1(C)C2CC(OC(=O)C(CO)c3ccccc3)CC1C1OC12` (configuration not stated): under setting [1], the half-maximal activity concentration (AC50) is 3.55 µM [rising, single point].

On to `CN1C[C@H](C(=O)N[C@]2(C)O[C@@]3(O)C4CCCN4C(=O)[C@H](Cc4ccccc4)N3C2=O)C[C@@H]2c3cccc4[nH]cc(c34)C[C@H]21` (some centres not stated), for which the AC50 was 12.6 µM [rising, partial curve] and 1.78 µM [rising, partial curve, poor fit] under setting [1]; 0.141 µM [rising, full curve, poor fit] under setting [2].

As for `CN1CCC(N(C)c2nc(-c3ccc([N+](=O)[O-])cc3)nc3ccccc23)CC1`, under setting [2], the AC50 is 15.8 µM [rising, single point].

For the compound `FC(F)=C(F)CCSc1ncn[nH]1`, the half-maximal activity concentration (AC50) under setting [1] is 2.51 µM [falling, partial curve, poor fit].

`CCCC(C)(COC(N)=O)COC(N)=O`: the concentration at half-maximal activity (AC50) was 0.141 µM [falling, full curve, poor fit] under setting [1] and 0.447 µM [falling, partial curve] under setting [2].

As to `CC1=NCCc2c1[nH]c1cc(O)ccc21`, the half-maximal activity concentration (AC50) under setting [2] was 0.0562 µM [falling, full curve, poor fit].

For `C[C@]12C=CC(=O)N[C@@H]1CC[C@@H]1C2CC[C@]2(C)C(C(=O)Nc3cc(C(F)(F)F)ccc3C(F)(F)F)CC[C@@H]12` (some centres not stated), the concentration at half-maximal activity (AC50) under setting [2] was 0.316 µM [rising, partial curve].

Regarding `OC1(c2ccc(Cl)cc2)CCN(Cc2c[nH]c3ccccc23)CC1`, the AC50 under setting [2] is 0.00891 µM [falling, full curve, poor fit].

As for `Cc1ccc(S(=O)(=O)N2CCCCC2)cc1NC(=O)CSc1ncnc2ccccc12`, the AC50 under setting [2] was 15.8 µM [rising, partial curve].

For the compound `CN1CCN(C(=S)SCC(=O)Nc2ccc(Cl)cc2C(=O)c2ccccc2)CC1`, the AC50 reads like this: under setting [1], 22.4 µM [rising, single point]; under setting [2], 22.4 µM [rising, single point].

`CC(=NCCN1CCOCC1)c1c(O)n(C2CCCCC2)c(=O)[nH]c1=O`: under setting [1], the AC50 is 35.5 µM [rising, single point].

Consider `CN(N=O)c1ccc(O)c(O)c1`, for which, under setting [1], the AC50 is 0.0224 µM [falling, full curve, poor fit].

For `CCCCCCN1CCN(c2ccccc2Cl)CC1`, the AC50 under setting [2] is 0.00631 µM [falling, full curve, poor fit].

Turning to `CCCN1CCC[C@@H]2Cc3nc(N)ncc3C[C@H]21`, under setting [1], the AC50 is 12.6 µM [rising, partial curve, poor fit].

`COC(=O)CSc1cc([N+](=O)[O-])cc2c1c(C1OCCO1)nn2-c1ccccc1`: the AC50 is 3.98 µM [falling, partial curve] under setting [1] and 5.62 µM [falling, partial curve] under setting [2].

As for `Cc1ccc(-n2nc(C)c(C3C(C#N)=C(N)Oc4c3c(=O)oc3ccccc43)c2Cl)cc1` (configuration not stated), under setting [2], the concentration at half-maximal activity (AC50) is 11.2 µM [rising, partial curve, poor fit].

Take `O=C(O)CCCC[C@H]1SC[C@H]2NC(=O)N[C@@H]21`: under setting [1], the concentration at half-maximal activity (AC50) is 2 µM [falling, partial curve, poor fit].

With `COc1ccc(C2=C(C(C)=O)Sc3nnc(-c4ccc(C)cc4)n3N2C(C)=O)cc1OC`, the half-maximal activity concentration (AC50) is 35.5 µM [rising, single point] under setting [1] and 17.8 µM [rising, partial curve] under setting [2].

`O=C(COc1ccc2ccccc2c1)N1CCN(Cc2c[nH]c3ccccc23)CC1`: the AC50 reads like this: under setting [1], 35.5 µM [falling, single point]; under setting [2], 28.2 µM [falling, single point].

Take `CC12CC[C@H]3[C@@H](CCC4(O)C[C@H](O)CCC34/C=N/NC(=O)Cc3ccccc3)C1(O)CCC2C1=CC(=O)OC1` (some centres not stated): under setting [2], the AC50 is 22.4 µM [rising, partial curve, poor fit].

As for `Cc1ccc(C(=O)c2cn(CC(=O)Nc3ccc(C(C)C)cc3)c3nc(C)ccc3c2=O)cc1`, under setting [2], the AC50 is 0.00316 µM [falling, full curve, poor fit].

Regarding `CCOC(=O)CSCCOc1ccc(C=C2C(=O)NC(=O)NC2=O)cc1OC`, the half-maximal activity concentration (AC50) was 0.00355 µM [rising, full curve, poor fit] under setting [1] and 0.00316 µM [rising, full curve, poor fit] under setting [2].

Regarding `N#Cc1cccc(NC(=O)c2sc3nc4c(cc3c2N)N2CCC4CC2)c1`, under setting [1], the concentration at half-maximal activity (AC50) was 35.5 µM [falling, single point].

On to `Cc1cc2c(s1)Nc1ccccc1N=C2N1CCN(C)CC1`, for which the half-maximal activity concentration (AC50) is, setting by setting: under setting [1], 25.1 µM [falling, single point]; under setting [2], 25.1 µM [falling, single point].

In the case of `CCN(CC)C(=O)/C(Cl)=C(\C)OP(=O)(OC)OC`, the half-maximal activity concentration (AC50) under setting [1] was 0.562 µM [falling, full curve, poor fit].

For `Cc1onc(-c2ccccc2Cl)c1C(=O)OCC(=O)c1ccc2c(c1)OCCO2`, the concentration at half-maximal activity (AC50) by setting is: under setting [1], 12.6 µM [rising, single point]; under setting [2], 17.8 µM [rising, partial curve].

Consider `CCOc1ccc(NC(=O)c2cccn(Cc3cccc(Cl)c3)c2=O)cc1`, for which the AC50 under setting [1] was 7.08 µM [falling, partial curve].

In the case of `N#CC(=Cc1ccc(O)c(O)c1)C(N)=S`, the concentration at half-maximal activity (AC50) under setting [1] is 0.0562 µM [rising, full curve].

For `Oc1ccccc1/C=N/NP(=S)(c1ccccc1)c1ccccc1`, the concentration at half-maximal activity (AC50) is 35.5 µM [rising, partial curve, poor fit] under setting [1] and 22.4 µM [rising, partial curve] under setting [2].

`Cc1ccc(P(=O)(O)c2ccc(C)cc2)cc1`: the AC50 runs as follows: under setting [1], 0.794 µM [falling, full curve, poor fit]; under setting [2], 1 µM [falling, full curve, poor fit].

As to `COc1ccc(C(O)c2cc(OC)ccc2OP(=O)(N(C)C)N(C)C)cc1` (configuration not stated), under setting [2], the half-maximal activity concentration (AC50) is 0.398 µM [falling, full curve].

With `COc1ccc(O)c(CN2CCCC(C(=O)c3ccccc3SC)C2)c1` (configuration not stated), the half-maximal activity concentration (AC50) under setting [1] is 3.55 µM [falling, partial curve, poor fit].

`CC(Oc1ccc(Cl)cc1Cl)C(=O)Nc1ccc(S(=O)(=O)Nc2cnc3ccccc3n2)cc1` (configuration not stated): the concentration at half-maximal activity (AC50) was 15.8 µM [rising, single point] under setting [1] and 35.5 µM [rising, single point] under setting [2].

In the case of `C#CCN1CC(=O)N(COC(=O)[C@@H]2[C@@H](C=C(C)C)C2(C)C)C1=O`, the half-maximal activity concentration (AC50) under setting [1] is 0.00398 µM [falling, full curve, poor fit] and the AC50 under setting [2] was 0.447 µM [falling, full curve, poor fit].

Take `CC(C)N(CCC(C(N)=O)(c1ccccc1)c1ccccn1)C(C)C` (configuration not stated): under setting [1], the half-maximal activity concentration (AC50) was 0.00501 µM [falling, full curve, poor fit].

Consider `O=C1NC(=O)C(CCc2ccncc2)(Cc2cccc(Cl)c2Cl)C(=O)N1c1ccc(Br)cc1` (configuration not stated), for which the half-maximal activity concentration (AC50) runs as follows: under setting [1], 35.5 µM [falling, single point]; under setting [2], 14.1 µM [falling, single point].

On to `COC(=O)/C(C)=C\CC12OC(C)(C)C3CC(C=C4C(=O)c5c(OC)c6c(c(CC=C(C)C)c5OC431)OC(C)(CCC=C(C)C)C=C6)C2=O` (configuration not stated), for which the concentration at half-maximal activity (AC50) runs as follows: under setting [1], 1.41 µM [falling, full curve]; under setting [2], 0.891 µM [falling, full curve].

As for `Cc1[nH]c2ccccc2c1CCCNC1CCCCC1`, under setting [2], the concentration at half-maximal activity (AC50) was 35.5 µM [rising, single point].

As for `Nc1ccc2c(c1)Cc1ccccc1-2`, the AC50 under setting [2] was 0.2 µM [rising, full curve, poor fit].

As for `COc1cc2c(cc1OC)-c1c(OC)c(OC)c(OC)c3ccnc(c13)C2=O`, the half-maximal activity concentration (AC50) under setting [2] was 11.2 µM [rising, partial curve].

In the case of `COc1cc2c(cc1OC)[C@@]13CCN4CC5=CCOC6CC(=O)N2C1[C@H]6[C@@H]5C[C@@H]43` (some centres not stated), under setting [2], the AC50 was 35.5 µM [falling, single point].

As for `Cc1csc(NC(=O)C2CCCN(S(=O)(=O)c3ccc4c(c3)oc(=O)n4C)C2)n1` (configuration not stated), the concentration at half-maximal activity (AC50) under setting [2] is 11.2 µM [rising, partial curve].

As to `CN(C(=O)CN1CC=C(c2ccccc2)CC1)c1c(N)n(Cc2ccccc2)c(=O)[nH]c1=O`, the half-maximal activity concentration (AC50) under setting [2] is 5.62 µM [rising, single point].

Consider `COc1ccc(CN2C(=O)NC(=O)/C(=C\c3ccco3)C2=O)cc1`, for which the half-maximal activity concentration (AC50) under setting [2] was 25.1 µM [rising, partial curve, poor fit].

In the case of `CCOc1ccc(OCC)c(NC(=O)CN2CCN(c3ccc(C)cc3C)CC2)c1`, the AC50 under setting [2] is 14.1 µM [rising, partial curve].

Regarding `C[C@H](N)[C@H](O)c1ccc(O)c(O)c1`, the concentration at half-maximal activity (AC50) is 0.316 µM [falling, single point] under setting [1] and 0.251 µM [falling, single point] under setting [2].

The record behind these values is PubChem BioAssay AID1487 (National Center for Advancing Translational Sciences (NCATS), 2009).
